Assay results: the supplement of paper PMC12425257
± gives the standard deviation of the averaged measurements. Some of the results follow.

Test system: Madurella mycetomatis MM55
Assay: metabolic activity (growth) relative to DMSO growth control; higher = more fungal growth

## O=C(O)C(F)(F)F.O=C(O)C(F)(F)F.O=c1c2cnc(Nc3ccc(N4CCN(CC5CCCCC5)CC4)cc3)nc2n2ccnc2n1-c1ccccc1Cl
1 µM
  metabolic activity: 94.8 ± 7.8%
2 µM
  metabolic activity: 80.7 ± 25%
10 µM
  metabolic activity: 82.6 ± 2.6%

## NS(=O)(=O)c1ccc(N/N=C2\C(=O)Nc3ccc(Cl)cc32)cc1
1 µM
  metabolic activity: 114 ± 5%
2 µM
  metabolic activity: 119 ± 26%
10 µM
  metabolic activity: 96.7 ± 17%

## Cn1ccc2ncnc(Oc3ccc(Nc4nc5ccccc5[nH]4)cc3)c21
1 µM
  metabolic activity: 121 ± 20%
2 µM
  metabolic activity: 93.1 ± 2%
10 µM
  metabolic activity: 104 ± 24%

## NC[C@@H](NC(=O)c1cccc(-c2ccccn2)c1)c1ccccc1
1 µM
  metabolic activity: 96.3 ± 24%
2 µM
  metabolic activity: 129 ± 13%
10 µM
  metabolic activity: 112 ± 1.2%

## CCNC(=O)/C(C#N)=c1\sc(=CNc2ccc(F)c(NC(=O)CN3CCC(F)(F)CC3)c2)c(=O)n1CC
1 µM
  metabolic activity: 82.5 ± 4.8%
2 µM
  metabolic activity: 120 ± 16%
10 µM
  metabolic activity: 91.8 ± 21%

## Cl.O=C1Nc2ccc(-c3cccnc3)cc2C1=Cc1cc(Br)c(O)c(Br)c1
1 µM
  metabolic activity: 93 ± 3.9%
2 µM
  metabolic activity: 95 ± 44%
10 µM
  metabolic activity: 99.7 ± 13%

## COc1cc2c(cc1CC(C)(C)O)Nc1cc(-c3ccc([N+](=O)[O-])c(OC)c3)ccc1C(=O)N2
1 µM
  metabolic activity: 98.7 ± 24%
2 µM
  metabolic activity: 104 ± 12%
10 µM
  metabolic activity: 127 ± 15%

## CC(C)COC(=O)c1ccc2c(c1)/C(=C/Nc1ccc(S(N)(=O)=O)cc1)C(=O)N2
1 µM
  metabolic activity: 99.7 ± 20%
2 µM
  metabolic activity: 92.5 ± 33%
10 µM
  metabolic activity: 96.5 ± 20%

## NS(=O)(=O)c1ccc(N/N=C2\C(=O)Nc3ccc(C(=O)NCc4ccncc4)cc32)cc1
1 µM
  metabolic activity: 98 ± 17%
2 µM
  metabolic activity: 96.7 ± 21%
10 µM
  metabolic activity: 95.7 ± 19%

## CCN1CCN(Cc2ccc(C(=O)Nc3ccc(C)c(Oc4ccc5c(c4)CC(=O)N5)c3)cc2C(F)(F)F)CC1.Cl.Cl
1 µM
  metabolic activity: 91.1 ± 22%
2 µM
  metabolic activity: 108 ± 3.6%
10 µM
  metabolic activity: 126 ± 44%

## CNC(=O)c1c(F)cccc1Nc1nc(Nc2cc3c(cc2OC)CCN3C(=O)CN(C)C)nc2[nH]ccc12
1 µM
  metabolic activity: 100 ± 17%
2 µM
  metabolic activity: 88.3 ± 26%
10 µM
  metabolic activity: 84.2 ± 3.3%

## CN(C)c1cc2c(Nc3ccc4c(cnn4Cc4ccccc4)c3)ncnc2cn1
1 µM
  metabolic activity: 84.3 ± 28%
2 µM
  metabolic activity: 81.7 ± 37%
10 µM
  metabolic activity: 78.5 ± 1.9%

## Cc1cc(NC(=O)c2cccc(NC(=O)/C=C/CN(C)C)c2)ccc1Nc1nccc(-c2cccnc2)n1
1 µM
  metabolic activity: 94.9 ± 8.6%
2 µM
  metabolic activity: 53.2 ± 73%
10 µM
  metabolic activity: 100 ± 37%

## CCS(=O)(=O)Nc1cccc(Oc2cc(F)cc(Nc3ccc(I)cc3F)c2NS(=O)(=O)C2CC2)c1
1 µM
  metabolic activity: 107 ± 5.4%
2 µM
  metabolic activity: 123 ± 32%
10 µM
  metabolic activity: 111 ± 30%

## CSc1cccc(-c2cc3c(SCCC(=O)O)ncnc3s2)c1
1 µM
  metabolic activity: 105 ± 20%
2 µM
  metabolic activity: 76.2 ± 22%
10 µM
  metabolic activity: 102 ± 25%

## Cc1cccc(CC(=O)Nc2ccc(-c3csc4ccnc(N)c34)cc2)c1
1 µM
  metabolic activity: 99.63 ± 0.59%
2 µM
  metabolic activity: 113 ± 43%
10 µM
  metabolic activity: 94 ± 12%

## CN1C(=O)c2sccc2N(C)c2nc(Nc3ccc(S(=O)(=O)NCCCNC(=O)OC(C)(C)C)cc3)ncc21
1 µM
  metabolic activity: 107 ± 18%
2 µM
  metabolic activity: 89.2 ± 9.4%
10 µM
  metabolic activity: 102 ± 11%

## CN1CCN(c2ccc(Nc3cc(Cc4ccccc4)cnc3C(N)=O)cc2Cl)CC1.O=C(O)C(F)(F)F
1 µM
  metabolic activity: 88.7 ± 7.2%
2 µM
  metabolic activity: 76.48 ± 0.39%
10 µM
  metabolic activity: 116 ± 16%

## Cc1cccc(-c2cc(Nc3ccncc3)c3ccccc3n2)n1
1 µM
  metabolic activity: 136 ± 71%
2 µM
  metabolic activity: 83.7 ± 4.5%
10 µM
  metabolic activity: 48.6 ± 42%

## CCOc1ccc2c(-c3ccnc(Nc4cc(N5CCOCC5)cc(C(F)(F)F)c4)n3)cnn2n1
1 µM
  metabolic activity: 74.7 ± 10%
2 µM
  metabolic activity: 72 ± 1.3%
10 µM
  metabolic activity: 95.5 ± 9.1%

## COc1ccc(-c2cc3c(N)ncnc3o2)cc1
1 µM
  metabolic activity: 105 ± 3.5%
2 µM
  metabolic activity: 91 ± 8.4%
10 µM
  metabolic activity: 103 ± 16%

## C=CC(=O)Nc1cc(-n2c(=O)ccc3cnc4ccc(-c5ccc(NS(C)(=O)=O)cc5)cc4c32)ccc1C
1 µM
  metabolic activity: 85.4 ± 18%
2 µM
  metabolic activity: 99.3 ± 33%
10 µM
  metabolic activity: 109 ± 1.2%

## O=CN1CCN(Cc2ccc3c(c2)Cc2c(-c4csc(C#CCOc5ccccc5)c4)n[nH]c2-3)CC1
1 µM
  metabolic activity: 118 ± 8.4%
2 µM
  metabolic activity: 116 ± 4%
10 µM
  metabolic activity: 101 ± 12%

## Fc1ccc(CNc2ccc3ncc(-c4cccc(OC(F)(F)F)c4)n3n2)cc1
1 µM
  metabolic activity: 112 ± 24%
2 µM
  metabolic activity: 113 ± 2.1%
10 µM
  metabolic activity: 163 ± 14%

## Nc1ncnn2c(CN3CCOCC3)cc(-c3cc(F)c(CO)c(F)c3)c12
1 µM
  metabolic activity: 84.5 ± 14%
2 µM
  metabolic activity: 92.7 ± 25%
10 µM
  metabolic activity: 96.3 ± 17%

## Cn1c(=O)c(F)c(Nc2ccc(I)cc2F)c2c(=O)n(OC[C@H](O)CO)cnc21
1 µM
  metabolic activity: 98.5 ± 45%
2 µM
  metabolic activity: 108 ± 12%
10 µM
  metabolic activity: 114 ± 23%

## COc1cccc(-c2c[nH]c3c(N/N=C/c4ccncc4)ncnc23)c1
1 µM
  metabolic activity: 99.9 ± 17%
2 µM
  metabolic activity: 102 ± 2.2%
10 µM
  metabolic activity: 81.9 ± 15%

## COc1cc(OC)cc(-c2cc3cnc(N)nc3nc2NC(=O)NC(C)(C)C)c1
1 µM
  metabolic activity: 80.4 ± 19%
2 µM
  metabolic activity: 97.5 ± 9%
10 µM
  metabolic activity: 97.6 ± 6.9%

## Nc1n[nH]c2cc(-c3cnn(Cc4ccccc4)c3)ccc12
1 µM
  metabolic activity: 98.1 ± 46%
2 µM
  metabolic activity: 107 ± 12%
10 µM
  metabolic activity: 92 ± 10%

## Nc1ncnc2occ(-c3ccc(NC(=O)Nc4cc(C(F)(F)F)ccc4F)cc3)c12
1 µM
  metabolic activity: 91.3 ± 23%
2 µM
  metabolic activity: 105 ± 37%
10 µM
  metabolic activity: 55.7 ± 14%

## Nc1nc(-c2cccc(Cl)c2)c(-c2ccc3ncccc3n2)s1
1 µM
  metabolic activity: 92.5 ± 26%
2 µM
  metabolic activity: 91.8 ± 10%
10 µM
  metabolic activity: 76.6 ± 15%

## Cc1cn(-c2cc(NC(=O)c3ccc4c(c3)CN(c3cncnc3)C[C@@H]4C)cc(C(F)(F)F)c2)cn1
1 µM
  metabolic activity: 124 ± 28%
2 µM
  metabolic activity: 94.7 ± 14%
10 µM
  metabolic activity: 71.4 ± 47%

## COc1cc2c(cc1OC)C(=C(Nc1ccccc1)c1cccc(CN)c1)C(=O)N2
1 µM
  metabolic activity: 105 ± 15%
2 µM
  metabolic activity: 66.5 ± 0.76%
10 µM
  metabolic activity: 97.7 ± 18%

## CCN(C)S(=O)(=O)Nc1cccc(-c2ccc3c(NC(=O)C4CC4)n[nH]c3c2)c1
1 µM
  metabolic activity: 108 ± 38%
2 µM
  metabolic activity: 98.3 ± 11%
10 µM
  metabolic activity: 117 ± 11%

## CC(C)(O)c1nnc2ccc(-c3c(-c4ccc(F)cc4F)nc4n3CCC4)nn12
1 µM
  metabolic activity: 118 ± 6.2%
2 µM
  metabolic activity: 113.1 ± 0.65%
10 µM
  metabolic activity: 109 ± 6.5%

## CCOc1cc(F)c(Cn2nc(-c3ncc(OC)c(Nc4ccncc4)n3)c(C)c2C2CC2)c(F)c1
1 µM
  metabolic activity: 95.52 ± 0.75%
2 µM
  metabolic activity: 108 ± 41%
10 µM
  metabolic activity: 125 ± 7.4%

## COc1cc(-c2cncc(-c3cnn(C4CCNCC4)c3)c2)cc(OC)c1OC
1 µM
  metabolic activity: 121 ± 13%
2 µM
  metabolic activity: 118 ± 38%
10 µM
  metabolic activity: 117 ± 22%

## CCC(=O)Nc1cccc(Oc2nc(Nc3ccc(N4CCN(C)CC4)cc3OC)ncc2Cl)c1
1 µM
  metabolic activity: 97.8 ± 11%
2 µM
  metabolic activity: 71.6 ± 0.97%
10 µM
  metabolic activity: 76.7 ± 14%

## CC(=O)c1c(C)c2cnc(Nc3ccn(C)n3)nc2n(C2CCCC2)c1=O
1 µM
  metabolic activity: 112 ± 35%
2 µM
  metabolic activity: 70.6 ± 7.9%
10 µM
  metabolic activity: 115 ± 11%

## Nc1nc(-c2ccc3c(N)n[nH]c3c2)cc(N2CCC[C@@H](C(=O)Nc3ccccc3)C2)n1
1 µM
  metabolic activity: 109 ± 14%
2 µM
  metabolic activity: 103 ± 16%
10 µM
  metabolic activity: 101 ± 22%

## Nc1ncnc2c1N=C(c1ccccc1)CCN2
1 µM
  metabolic activity: 100 ± 24%
2 µM
  metabolic activity: 75.5 ± 38%
10 µM
  metabolic activity: 89.4 ± 14%

## CN(C)CCOc1ccc(-c2nc(-c3ccc4c(c3)CC/C4=N\O)c(-c3ccncc3)[nH]2)cc1
1 µM
  metabolic activity: 101 ± 9.2%
2 µM
  metabolic activity: 76.5 ± 1.2%
10 µM
  metabolic activity: 111 ± 58%

## COc1cc2ncn(-c3cc(O[C@H](C)c4ccccc4Cl)c(C(N)=O)s3)c2cc1OC
1 µM
  metabolic activity: 93.5 ± 14%
2 µM
  metabolic activity: 87.5 ± 19%
10 µM
  metabolic activity: 55.9 ± 44%

## COc1cc(OC)c(NC(=O)Nc2cnc(C#N)cn2)cc1Cl
1 µM
  metabolic activity: 107 ± 27%
2 µM
  metabolic activity: 104 ± 18%
10 µM
  metabolic activity: 112 ± 32%

## Nc1nccc(-c2c(-c3ccc(F)cc3)ncn2CCCN2CCOCC2)n1
1 µM
  metabolic activity: 90.5 ± 19%
2 µM
  metabolic activity: 91.1 ± 5.8%
10 µM
  metabolic activity: 104 ± 3.3%

## CN1CCN(c2ccc(Nc3ncc4c(=O)n(-c5c(Cl)cccc5Cl)nc(-c5cccnc5Cl)c4n3)cc2)CC1.O=C(O)C(F)(F)F.O=C(O)C(F)(F)F
1 µM
  metabolic activity: 103 ± 14%
2 µM
  metabolic activity: 95.9 ± 32%
10 µM
  metabolic activity: 124 ± 8.9%

## Cn1ncc2cc(-c3cnc(N)c(Cl)c3N3CCC4(CCNC4=O)CC3)ccc21
1 µM
  metabolic activity: 100 ± 20%
2 µM
  metabolic activity: 123 ± 10%
10 µM
  metabolic activity: 94.1 ± 20%

## Cc1nccc(-c2c(-c3ccc(F)cc3)ncn2CCCN2CCOCC2)n1
1 µM
  metabolic activity: 81.8 ± 19%
2 µM
  metabolic activity: 86.77 ± 0.6%
10 µM
  metabolic activity: 87.1 ± 12%

## Cc1c(Cn2ccn3c(=O)nc(N4CCOCC4)cc23)cccc1C(F)(F)F
1 µM
  metabolic activity: 81.6 ± 3.2%
2 µM
  metabolic activity: 99.7 ± 34%
10 µM
  metabolic activity: 108 ± 15%

## c1ccc(-c2cc3ccncc3cc2OC2CCNCC2)cc1
1 µM
  metabolic activity: 86.3 ± 1.1%
2 µM
  metabolic activity: 94.5 ± 8.5%
10 µM
  metabolic activity: 93.7 ± 5%

## CCn1c(-c2nonc2N)nc2ccccc21
1 µM
  metabolic activity: 87.4 ± 7%
2 µM
  metabolic activity: 81.7 ± 15%
10 µM
  metabolic activity: 95.8 ± 14%

## O=C1Nc2ccc(I)cc2C1=Cc1cc(Br)c(O)c(Br)c1
1 µM
  metabolic activity: 107 ± 44%
2 µM
  metabolic activity: 114 ± 28%
10 µM
  metabolic activity: 98.3 ± 4.2%

## C[C@@H]1CCNC(=O)c2cc3ccc(C(=O)Nc4nc5ccccc5n4CCCN(C)C)cc3n21
1 µM
  metabolic activity: 83 ± 13%
2 µM
  metabolic activity: 90.5 ± 4.8%
10 µM
  metabolic activity: 101 ± 10%

## CC(C)N1CC(=O)N(C)c2cnc(Nc3cccc(S(=O)(=O)CCN4CCOCC4)c3)nc21
1 µM
  metabolic activity: 100 ± 14%
2 µM
  metabolic activity: 78.4 ± 18%
10 µM
  metabolic activity: 120 ± 26%
